Values from PubChem BioAssay AID1259308 (NCATS, 2017)

Assay: 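Genes whose loss raises luciferase production in HEK293 cells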 (primary screen)
Cells: human HEK293 embryonic kidney cells stably expressing firefly luciferase (HEK-CMV-Luc2-Hygro)
Reagent: single siRNA against human genes, 0.8 pmol siRNA per well
Time to read-out: 72 h
Measured: 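Reporter luminescence and viable-cell signal on separate replicate plates, given as percent of non-targeting control and median/MAD z-scores, plus per-cell luciferase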
Direction: total luciferase, z-score and total luciferase, % of control: higher = more reporter protein produced; luciferase per cell, z-score: higher = more reporter output per viable cell
Call rule: 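An siRNA counts as active if its total luciferase robust z-score exceeds 3; genes with two or more such siRNAs out of three were retested with fresh siRNAs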
Meaning of the calls: active = raised luciferase; inactive = no rise
The deposit covers about 59,000 reagents; shown is a random part of them. About 1,510 of them (2.6%) were called active. 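Calls use total luciferase alone and ignore viability, so some active siRNAs may act by altering cell number.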 Entries without a mark were called inactive. The numbers tell different reagents against one gene apart. Not all columns of the deposit are shown.

target | reagent no. | total luciferase, z-score | total luciferase, % of control | luciferase per cell, z-score
HECTD3 | 1 | -1.7 | 48 | -2.55
HECTD3 | 2 | 2.19 | 125 | 1.27
HECTD3 | 3 | -0.632 | 69.3 | -1.28
IPMK | 1 | -0.0726 | 80.4 | -0.0268
IPMK | 2 | 0.927 | 100 | 0.222
IPMK | 3 | 0.271 | 87.3 | -0.199
ERO1A | 1 | -0.177 | 78.4 | 0.958
ERO1A | 2 | 1.24 | 107 | 1.41
ERO1A | 3 | -0.303 | 75.9 | -0.366
SOCS7 | 1 | -0.337 | 75.2 | -0.645
SOCS7 | 2 | 0.513 | 92.1 | -0.363
SOCS7 | 3 | 1.92 | 120 | 1.16
SNX2 | 1 | 0.765 | 97.1 | 0.258
SNX2 | 2 | 0.194 | 85.7 | 0.0904
SNX2 | 3 | -1.74 | 47.3 | -0.874
CD300LF | 1 | -0.736 | 67.2 | -0.158
CD300LF | 2 | 0.765 | 97.1 | 0.15
CD300LF | 3 | 0.301 | 87.9 | 0.187
CYP1B1 | 1 | 0.946 | 101 | 0.344
CYP1B1 | 2 | 2.06 | 123 | 1.39
CYP1B1 | 3 | 0.388 | 89.6 | -0.103
LINC00863 | 1 | -1.22 | 57.7 | -0.802
LINC00863 | 2 | 1.48 | 111 | 0.44
LINC00863 | 3 | 2.01 | 122 | 1.48
ETS1 | 1 | 1.3 | 108 | 0.831
ETS1 | 2 | 2.06 | 123 | 1.22
ETS1 | 3 | 4.89 (active) | 179 | 2.74
VXN | 1 | 1.92 | 120 | 2.06
VXN | 2 | 2.63 | 134 | 2.27
VXN | 3 | 0.0353 | 82.6 | -0.132
APBB1IP | 1 | -1.56 | 50.9 | -1.06
APBB1IP | 2 | 0.352 | 88.9 | 0.607
APBB1IP | 3 | 2.99 | 141 | 3.34
VCF2 | 1 | -0.583 | 70.3 | -0.727
VCF2 | 2 | -0.3 | 75.9 | -0.0989
VCF2 | 3 | 0.0447 | 82.8 | -0.381
CKAP5 | 1 | -1.16 | 58.8 | 0.834
CKAP5 | 2 | -1.23 | 57.4 | 1.19
CKAP5 | 3 | -1.91 | 43.9 | -0.973
ABHD16B | 1 | -2.38 | 34.5 | -2.47
ABHD16B | 2 | 1.3 | 108 | 1.14
ABHD16B | 3 | 0.123 | 84.3 | -0.141
DPP6 | 1 | -0.806 | 65.9 | -1.02
DPP6 | 2 | -0.21 | 77.7 | -0.0187
DPP6 | 3 | -0.781 | 66.3 | -0.648
DPP6 | 4 | 0.18 | 85.5 | 0.129
DPP6 | 5 | 4.8 (active) | 177 | 3.01
DPP6 | 6 | -0.273 | 76.5 | -0.288
PKMYT1 | 1 | -0.526 | 71.4 | -0.613
PKMYT1 | 2 | 0.142 | 84.7 | -0.61
PKMYT1 | 3 | 5.01 (active) | 182 | 3.03
OCEL1 | 1 | 4.01 (active) | 162 | 2.69
OCEL1 | 2 | -0.899 | 64 | -1.77
OCEL1 | 3 | -1.18 | 58.3 | -0.966
AKAP12 | 1 | 0.195 | 85.8 | 1.13
AKAP12 | 2 | 0.0987 | 83.8 | -0.258
AKAP12 | 3 | 0.217 | 86.2 | 0.276

A stretch of the results above, as a working copy:
target | reagent no. | total luciferase, z-score | total luciferase, % of control | luciferase per cell, z-score
ETS1 | 2 | 2.06 | 123 | 1.22
ETS1 | 3 | 4.89 (active) | 179 | 2.74
VXN | 1 | 1.92 | 120 | 2.06
VXN | 2 | 2.63 | 134 | 2.27
VXN | 3 | 0.0353 | 82.6 | -0.132
APBB1IP | 1 | -1.56 | 50.9 | -1.06
APBB1IP | 2 | 0.352 | 88.9 | 0.607
